Results: publication PMC11334571, “EpCAM-targeted betulinic acid analogue nanotherapy improves therapeutic efficacy and induces anti-tumorigenic immune response in colorectal cancer tumor microenvironment” (Journal of Biomedical Science, 2024)

The chains behind the UniProt entries cited, without tags or fusion partners. Residues count along the entry.
UniProt P16422, 24-265: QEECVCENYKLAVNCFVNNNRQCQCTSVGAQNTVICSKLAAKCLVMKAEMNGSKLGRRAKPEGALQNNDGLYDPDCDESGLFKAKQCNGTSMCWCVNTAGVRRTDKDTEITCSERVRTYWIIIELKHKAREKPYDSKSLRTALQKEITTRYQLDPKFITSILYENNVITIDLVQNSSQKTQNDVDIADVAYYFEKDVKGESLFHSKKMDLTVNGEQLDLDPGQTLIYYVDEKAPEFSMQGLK

Target: EpCAM (epithelial cell adhesion molecule) (UniProt P16422)
Assay: binding assay
Details: phosphorothioate backbone and 3'-NH2 as used here; cited Kd may refer to the unmodified DNA; single-stranded DNA

ATCCAGAGTGACGCAGCATGCGGCACACACTTCTATCTTTGCGGAACTCCTGCGGCTCTGGACACGGTGGCTTAGT [EpCAM aptamer (Apt)]
Kd: 12 nM

For at least one entry, the source does not settle the construct or the ends of the probe.
